Laboratory results as given in US20210332350A1.
Results are given in words; binding and its absence hold for the method and conditions named. Some binding calls cover weakened binding; strength is not graded here.

Chains of the proteins cited; added tags and fusions are not shown. Residues count along the entry.
UniProt P0AGE0, residues 2-178: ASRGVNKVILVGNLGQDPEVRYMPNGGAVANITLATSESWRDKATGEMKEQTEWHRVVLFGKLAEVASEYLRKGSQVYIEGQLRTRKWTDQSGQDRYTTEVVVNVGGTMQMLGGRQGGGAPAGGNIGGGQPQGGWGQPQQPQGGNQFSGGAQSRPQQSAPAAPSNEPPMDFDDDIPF

Target: E. coli single-strand DNA-binding protein (SSB) (Escherichia coli) (UniProt P0AGE0)
Experiment: inferred from the fluorescent oligo quenching assay with SSB-coated complementary oligos; no direct binding assay

λ β (λ Red beta, full length wild type) with N-terminal 6×His tag (from UniProt P03698 1-261)
binding: binds
